This is one part of the list. Many values rest on one well or one pass, so single values are uncertain.

The test deals with Saccharomyces cerevisiae BY4743. As to the kind of experiment: growth (OD600) with compound + IPBC relative to untreated control; higher = less growth inhibition. To be noted: compound concentration: 133 uM; IPBC concentration: 0.5 ug/ml; 20 h. As to the method:
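NMCCC compounds (133 uM) combined with IPBC (0.5 ug/ml) against Saccharomyces cerevisiae BY4743 in YPD, 96-well plates. Growth was read as OD600 at 20 h and expressed as % of the untreated control. Single pass.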
`O=C1CCCCC1Sc1nnc(O)n1Cc1ccccc1` (centres undefined) + CCCCNC(=O)OCC#CI [3-iodo-2-propynyl butylcarbamate (IPBC)]: the growth was 91%. With `CC(C(=O)[O-])n1c(Br)nc2c1c(=O)[nH]c(=O)n2C` (centres undefined) + CCCCNC(=O)OCC#CI [3-iodo-2-propynyl butylcarbamate (IPBC)], the growth was 96.4%.

`O=C([O-])c1cc(O)nc2ccc(S(=O)(=O)Nc3ccc(F)cc3)cc12` + CCCCNC(=O)OCC#CI [3-iodo-2-propynyl butylcarbamate (IPBC)]: the growth came out at 86.9%.

As for `Cc1cc(C)c(NC(=O)CCCN(c2ccc3c(c2)OCO3)S(C)(=O)=O)c(C)c1` + CCCCNC(=O)OCC#CI [3-iodo-2-propynyl butylcarbamate (IPBC)], the growth was 106%. With `Cc1nc(Cl)cc(NCC2COc3ccccc3O2)n1` (centres undefined) + CCCCNC(=O)OCC#CI [3-iodo-2-propynyl butylcarbamate (IPBC)] the figure was 88.2%; with `O=C(Nc1ccccc1OC(F)F)c1ccc(NC2CC2)nc1` + CCCCNC(=O)OCC#CI [3-iodo-2-propynyl butylcarbamate (IPBC)], 91%; with `CC(=O)c1oc2ccccc2c1NC(=O)CSc1nc[nH]n1` + CCCCNC(=O)OCC#CI [3-iodo-2-propynyl butylcarbamate (IPBC)], 106%. With `CCOC(=O)\C1=C(/COC(=O)C2=CC(=NC3=C2C(=NO3)C)C)NC(=O)NC1` + CCCCNC(=O)OCC#CI [3-iodo-2-propynyl butylcarbamate (IPBC)] the figure was 103%.

For the compound `Cc1cc(C(=O)OCC(=O)c2ccc[nH]2)c(C)n1Cc1cccs1` + CCCCNC(=O)OCC#CI [3-iodo-2-propynyl butylcarbamate (IPBC)], the growth amounted to 98.4%. With `O=C(c1cc(Cl)ccn1)N1CCOc2ccccc21` + CCCCNC(=O)OCC#CI [3-iodo-2-propynyl butylcarbamate (IPBC)] the figure was 104%; with `CCOC(=O)c1c(C)[nH]c(CN(Cc2ccc(C)cc2)S(=O)(=O)c2c(C)noc2C)c1C` + CCCCNC(=O)OCC#CI [3-iodo-2-propynyl butylcarbamate (IPBC)], 92.6%; with `CN(C(=O)CSc1nnc(-c2cccnc2)o1)c1ccc(F)cc1` + CCCCNC(=O)OCC#CI [3-iodo-2-propynyl butylcarbamate (IPBC)], 90%.

Turning to `CCCn1c(=O)n(-c2ccccc2)c(=O)c2ccccc21` + CCCCNC(=O)OCC#CI [3-iodo-2-propynyl butylcarbamate (IPBC)], the growth was found to be 102%. For `CC(=O)c1ccc(S(=O)(=O)NCc2csc(-c3ccccc3)n2)cc1` + CCCCNC(=O)OCC#CI [3-iodo-2-propynyl butylcarbamate (IPBC)], the growth turned out to be 103%.

Regarding `Cc1ccnc(NC(=O)c2ccc(C)cc2Cl)c1` + CCCCNC(=O)OCC#CI [3-iodo-2-propynyl butylcarbamate (IPBC)], the growth was 103%.

In the case of `CCOC(=O)N1CCN(C(=O)CNS(=O)(=O)c2ccc(Cl)c(C(F)(F)F)c2)CC1` + CCCCNC(=O)OCC#CI [3-iodo-2-propynyl butylcarbamate (IPBC)], the growth came to 86.9%. Take `COc1ccccc1NC(=O)c1ccc(NC(=O)CSc2nnc(C)n2N)cc1` + CCCCNC(=O)OCC#CI [3-iodo-2-propynyl butylcarbamate (IPBC)]: the growth turned out to be 103%.

In the case of `O=C1NC(c2cc(Br)cs2)Oc2ccccc21` (centres undefined) + CCCCNC(=O)OCC#CI [3-iodo-2-propynyl butylcarbamate (IPBC)], the growth amounted to 103%. Consider `Cc1cc(NS(=O)(=O)c2ccc(NC(=O)N[C@H](C(=O)O)C(C)C)cc2)no1` + CCCCNC(=O)OCC#CI [3-iodo-2-propynyl butylcarbamate (IPBC)], for which the growth is 97.3%. With `CCOC(=O)c1c(C)c(C(=O)NCc2ccc3c(c2)OCO3)c(C)n1CC` + CCCCNC(=O)OCC#CI [3-iodo-2-propynyl butylcarbamate (IPBC)] the figure was 89.7%; with `CSc1nc(O)n2ncc(-c3ccc(F)cc3)c2n1` + CCCCNC(=O)OCC#CI [3-iodo-2-propynyl butylcarbamate (IPBC)], 99.3%.

As for `CC1=CC=C(C=C1)[S](=O)(=O)N2\C=C/C3=CC=CC=C3C2C#N` (centres undefined) + CCCCNC(=O)OCC#CI [3-iodo-2-propynyl butylcarbamate (IPBC)], the growth came to 92%. With `CC(C)NC(=O)CCCc1nnc2n(C)c(=O)c3sccc3n12` + CCCCNC(=O)OCC#CI [3-iodo-2-propynyl butylcarbamate (IPBC)] the figure was 114%; with `CCN(CC)\C1=C(/C(=O)N2CCOCC2)[S](=O)(=O)C3=CC=CC=C13` + CCCCNC(=O)OCC#CI [3-iodo-2-propynyl butylcarbamate (IPBC)], 106%; with `O=C(CC1=CC=CS1)N(C\2C[S](=O)(=O)\C=C2)C3=CC=CC=C3` (centres undefined) + CCCCNC(=O)OCC#CI [3-iodo-2-propynyl butylcarbamate (IPBC)], 101%.

In the case of `Cc1ccc2c(c1)N(C(=O)Nc1ccc(Br)cc1)CCO2` + CCCCNC(=O)OCC#CI [3-iodo-2-propynyl butylcarbamate (IPBC)], the growth worked out at 71.2%. With `CCCN(CCC)C(=O)CN1\N=C/C2=C(C)[N](CC3=CC=CC=C3)C(=C2C1=O)C` + CCCCNC(=O)OCC#CI [3-iodo-2-propynyl butylcarbamate (IPBC)] the figure was 108%; with `O=C(CN1\N=N/C2=CC=CC=C2C1=O)NC3(CCCCC3)C#N` + CCCCNC(=O)OCC#CI [3-iodo-2-propynyl butylcarbamate (IPBC)], 105%; with `Cc1cccc(C)c1N1C(=O)N(CC(=O)NC(C)C)c2ccccc2S1(=O)=O` + CCCCNC(=O)OCC#CI [3-iodo-2-propynyl butylcarbamate (IPBC)], 98.1%. As to `Cc1ccccc1NS(=O)(=O)c1ccc(C(=O)NN2CCCCC2)cc1` + CCCCNC(=O)OCC#CI [3-iodo-2-propynyl butylcarbamate (IPBC)], the growth worked out at 105%. With `O=C(CSc1ccc(-c2cccs2)nn1)NC1CCCCC1` + CCCCNC(=O)OCC#CI [3-iodo-2-propynyl butylcarbamate (IPBC)] the figure was 95.2%; with `Cn1c(CN2CCOCC2)c(C#N)c2ccccc21` + CCCCNC(=O)OCC#CI [3-iodo-2-propynyl butylcarbamate (IPBC)], 88.8%; with `CCCCN(C(=O)c1noc2c1CC(C)CC2)C1CCN(C(C)=O)CC1` (centres undefined) + CCCCNC(=O)OCC#CI [3-iodo-2-propynyl butylcarbamate (IPBC)], 91%.

For the compound `Cc1nn(C)c(C)c1CNC(=O)C1C2CCC(O2)C1C(=O)O` (centres undefined) + CCCCNC(=O)OCC#CI [3-iodo-2-propynyl butylcarbamate (IPBC)], the growth worked out at 103%. With `Clc1nc(NCc2ccco2)c2[nH]cnc2n1` + CCCCNC(=O)OCC#CI [3-iodo-2-propynyl butylcarbamate (IPBC)] the figure was 93.5%; with `COc1cc(CC(=O)Nc2nc(CN3CC(C)OC(C)C3)cs2)cc(OC)c1OC` (centres undefined) + CCCCNC(=O)OCC#CI [3-iodo-2-propynyl butylcarbamate (IPBC)], 88%; with `COC(=O)c1cc(COC(=O)C2(c3ccccc3F)CCCC2)oc1C` + CCCCNC(=O)OCC#CI [3-iodo-2-propynyl butylcarbamate (IPBC)], 94.9%.

As for `CCC1=CC=C(NC(=O)CN2\C=C/N(C(=O)C2=O)C3=CC(=CC(=C3)C)C)C=C1` + CCCCNC(=O)OCC#CI [3-iodo-2-propynyl butylcarbamate (IPBC)], the growth came to 91.1%. With `CCOc1ccc(NC(C)=O)cc1S(=O)(=O)N1CC(C(=O)N(C)C)Oc2ccccc21` (centres undefined) + CCCCNC(=O)OCC#CI [3-iodo-2-propynyl butylcarbamate (IPBC)] the figure was 112%.

(Values after the supplement of paper PMC8007513.)
